According to patent US20080096990A1, “Flame Retardant Polystyrene Foam Compositions” (priority 2004, published 2008):

Assay: LOI test of compression molded polystyrene/flame retardant blends, ASTM D 2863-87
Conditions: in GPPS
[1] = Wt % Loading 4.5%, Wt % Br 2.25%, no stabilizer

SMILES | LOI [1] | LOI (Wt % Loading 4.6%, Wt % Br 2.3%, 0.1% hydrotalcite stabilizer)
CN1C(=O)C2CC(Br)C(Br)CC2C1=O (stereo not drawn) [III] | 24.3 | 25.2
O=C1NC(=O)C2CC(Br)C(Br)CC12 (stereo not drawn) [II] | 25.0 | –
